The results in this text go back to article PMC10567574, “piRNA processing by a trimeric Schlafen-domain nuclease” (Nature, 2023).

Protein sequences, listed by entry. Tags and fused reporters are not part of them. Lines headed by an entry give the natural chain unless they say otherwise; changes in a name come on top.
UniProt Q09293: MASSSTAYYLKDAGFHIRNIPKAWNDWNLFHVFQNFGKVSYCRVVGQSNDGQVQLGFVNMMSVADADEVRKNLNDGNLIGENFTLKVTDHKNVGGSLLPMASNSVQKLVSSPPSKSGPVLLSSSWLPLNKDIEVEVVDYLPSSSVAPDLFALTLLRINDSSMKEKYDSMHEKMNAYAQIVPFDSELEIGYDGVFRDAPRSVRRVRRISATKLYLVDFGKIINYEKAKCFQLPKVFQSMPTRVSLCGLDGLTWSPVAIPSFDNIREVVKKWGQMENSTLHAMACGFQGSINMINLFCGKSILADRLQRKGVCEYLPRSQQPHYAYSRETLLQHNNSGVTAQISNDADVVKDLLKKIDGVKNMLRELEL

No constants are given. Whether binding was seen depends on the method and setting. Binding calls can cover weak binding; strength is not graded here. For some assays here: Where a sequence is shown, tags or fusion partners need not be part of it. For some assays here: Binding seen in cells or lysates may run through a third protein.

Assay [1] deals with T1, GST-tagged TOFU-1^82-113 (C. elegans) (UniProt O17608).
T1 sequence: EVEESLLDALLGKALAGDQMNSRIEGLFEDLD
Kind of assay: pull-down; purified MBP-TOFU-6^eTUDOR constructs as bait (MBP pull-down) and GST-tagged TOFU-1 constructs as bait (GST pull-down); 20 mM Tris/HCl pH 7.5, 150 mM NaCl, 10% glycerol, 0.05% NP40, 1 mM DTT; SDS-PAGE with Coomassie staining; both purified.

The target in assay [2] is StrepII-tagged TOFU-2 SLFN domain (C. elegans). Nature of the assay: pull-down; constructs co-expressed in E. coli; StrepII-tagged bait precipitated from the lysate by Strep-Tactin XT beads, 2 h at 4 C, 250 mM NaCl pH 8.0; SDS-PAGE with Coomassie staining.

Take “mutant MBP-TOFU-6^eTUDOR domain (from UniProt Q09293) (domain or fragment)”: the binding result in assay [1] was “binds”.

B1: SLFL-3 (co-expressed in E. coli) (protein, UniProt O61766 1-383)
chain: MDSGDFSPMQSNFSLGFMSFEDIPEDARTTEMIDKIVFEEDKEYDHTQDSFRYGRVTTGVSYNLVTGKIPKTVFEQVKAKDDENDNVEFEMEHLEDKETAHKTQTFDELYESQMPKYFDYQSNFSDVNGIWTLLFDQNHYEKMSTFELQAAICAALNSKHFMMICVGIDAFNAVTGVEMSAKDRVVFRMALTRAVAGEFQPPLVKVAPKQLTGVSPMKRDISEVTSSIDVLFVPVIGVTDEVENNRFLIVVRVKEISDKVYQISSGRIYNEQEGRVVEMSDMNEAFHKLIVEKSISDIQTRRGSMFMLEPEPFLEDSAVIFTESNEIPSENHEISRVHVKNCTERSLSQSLLNLLDIQNIGWIFFGTALSFCIYNNAIKPLVK
As for B1, the binding result in assay [2] was “binds”.
